Construct, isoform or probe ends are uncertain for at least one entry. A weaker result is weaker than the reference pair of the same experiment.
What was measured:
[1] = biological target: NF1 (nuclear factor 1/C) (Sus scrofa (porcine)) (UniProt P21999); experiment: EMSA; conditions: 200 mM NaCl, minor binding, attributed to unspecific binding; NF1 binding buffer: 5 mM Tris-Cl pH 8.0, 90 mM NaCl (200 mM for EMSA and Fig. 2d), 0.5 mM EDTA, 5% glycerol, 0.55 mM beta-mercaptoethanol, 1 ug BSA; recombinant protein; protein details: 6xHis; label: 5'-biotin on both strands
[2] = biological target: NF1 (nuclear factor 1/C) (Sus scrofa (porcine)) (UniProt P21999); experiment: femtosecond UV laser crosslinking, western blot; conditions: 200 mM NaCl, crosslinking stated specific for wild type; NF1 binding buffer: 5 mM Tris-Cl pH 8.0, 90 mM NaCl (200 mM for EMSA and Fig. 2d), 0.5 mM EDTA, 5% glycerol, 0.55 mM beta-mercaptoethanol, 1 ug BSA; recombinant protein; protein details: 6xHis; label: 5'-biotin on both strands

Protein sequences, listed by entry. Tags and fused reporters are not part of them.
UniProt P21999, whole entry: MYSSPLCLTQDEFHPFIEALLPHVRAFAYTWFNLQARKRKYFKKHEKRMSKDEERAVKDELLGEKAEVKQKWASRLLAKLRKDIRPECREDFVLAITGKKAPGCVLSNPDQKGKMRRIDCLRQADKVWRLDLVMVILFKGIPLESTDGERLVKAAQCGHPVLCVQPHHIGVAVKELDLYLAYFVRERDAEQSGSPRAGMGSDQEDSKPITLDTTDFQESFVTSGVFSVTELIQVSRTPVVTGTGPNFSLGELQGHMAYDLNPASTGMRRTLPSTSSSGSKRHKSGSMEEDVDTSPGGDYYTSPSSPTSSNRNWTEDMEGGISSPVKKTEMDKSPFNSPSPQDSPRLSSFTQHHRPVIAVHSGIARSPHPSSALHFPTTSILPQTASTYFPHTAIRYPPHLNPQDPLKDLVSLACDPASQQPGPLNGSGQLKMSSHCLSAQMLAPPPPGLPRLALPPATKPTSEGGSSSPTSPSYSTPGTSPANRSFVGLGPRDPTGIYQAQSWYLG

| Sequence | binding result [1] | binding result [2] |
| --- | --- | --- |
| AATTCCTTTTTTTGCGCTAAAGCGTAGTGGATAATGAGG (double strand) [NF1 mutant consensus oligo] | binds more weakly |  |
| AAGTCCTTTTTTAGCGCTAAAGCGTAGTGGCTGATGAGG (double strand) [NF1 mutant oligo of Fig. 2d] |  | binds more weakly |
